The source of these data is PubChem BioAssay AID651803 (National Center for Advancing Translational Sciences (NCATS), 2012).

Amino acid sequences for entries named in this document (tags omitted). A change or cut given only in a name is not applied to a line headed by its entry.
UniProt P11308: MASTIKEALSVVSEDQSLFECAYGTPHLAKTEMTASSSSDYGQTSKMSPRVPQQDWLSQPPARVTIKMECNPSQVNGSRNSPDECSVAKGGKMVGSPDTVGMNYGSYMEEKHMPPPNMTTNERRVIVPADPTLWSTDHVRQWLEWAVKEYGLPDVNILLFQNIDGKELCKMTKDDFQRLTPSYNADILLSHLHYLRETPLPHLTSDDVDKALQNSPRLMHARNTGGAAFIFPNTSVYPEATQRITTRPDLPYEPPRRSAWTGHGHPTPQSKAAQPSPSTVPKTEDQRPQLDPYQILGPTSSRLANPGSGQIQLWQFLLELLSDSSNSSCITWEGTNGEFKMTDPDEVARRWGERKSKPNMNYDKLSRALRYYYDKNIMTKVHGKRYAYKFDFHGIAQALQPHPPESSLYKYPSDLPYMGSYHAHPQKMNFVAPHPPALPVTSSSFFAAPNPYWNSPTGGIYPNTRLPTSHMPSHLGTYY

Hit rate of the full screen: of about 1,200 compounds, fewer than 10 were called active. The call rests on the fitted dose curve; in most records, active means well fitted curve in the direction sought with a large enough effect; inconclusive means small, poorly fitted or top-dose-only effect, or another doubt; inactive means no such curve, though single readings can be large or run the other way. Some of the results follow.

The assay addresses Transcriptional regulator ERG (Homo sapiens) (UniProt P11308). The assay is described as follows: qHTS for Small Molecule Inhibitors of the ERG Ets/DNA interaction: TR assay against cherry picks. Further: % of control where 0% means no effect. To be noted: ERG Ets domain-DNA fluorescence polarization, Texas red probe; at 154 µM (top of the series). Put shortly:
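Polarization read sequentially for fluorescein (ex 480/em 535 nm) and Texas red (ex 555/em 632 nm) probes, 5 nM and 100 nM solutions, displaced from His-ERG Ets domain (1 uM solution), pH 7.5 Tris/KCl/EDTA/DTT buffer.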
Turning to `CCOc1ccc(S(=O)(=O)N2CCC(C(=O)NCC3CCCO3)CC2)cc1C` (stereo not drawn), the activity change, negative = inhibition is inactive: -1.71%. With `Cc1c(OC(C(=O)O)c2ccccc2)ccc2c(-c3ccccc3)cc(=O)oc12` (stereo not drawn), the activity change, negative = inhibition is inactive: 3.4%. As for `Cc1cccc(NC(=O)NCCCCc2ccccc2)c1`, the activity change, negative = inhibition was inactive: -2.69%. The figure for `CN1C(=O)NC(NC(=O)c2ccncc2)(C(F)(F)F)C1=O` (stereo not drawn) is inactive: -2.46%. In the case of `COc1ccc(/C=N/n2c(-c3n[nH]c4c3CCC4)n[nH]c2=S)cc1` it was inactive: -2.85%; in that of `CCN1CCCC(OC(=O)Nc2ccccc2)C1` (stereo not drawn), inactive: -1.85%.

Take `Cc1ccc([C@@H]2C3COCC=C3C(C#N)=C(N)C2(C#N)C#N)o1` (stereo partly drawn): the activity change, negative = inhibition was inactive: 70.2%. The figure for `Cc1cc(C)c(S(=O)(=O)N2CCN(C(=O)N3CCOCC3)CC2)c(C)c1` is inactive: 3.47%; for `CC1(C)CC(=O)C2=C(C1)OC(=O)CC2c1cccs1` (stereo not drawn) it is inactive: -15.7%; for `COc1ccc(NC(=O)C2=NN(c3ccccc3)C(=O)CC2)cn1` it is inactive: -2.68%. For `CCn1cc(C(=O)N2CCCC(N3CCN(c4cccc(C(F)(F)F)c4)CC3)C2)cn1` (stereo not drawn), the activity change, negative = inhibition was inactive: -9.8%. The figure for `O=C(CCn1cccc1)NCc1ccccc1` is inactive: 3.42%; for `COc1cc(CNc2ccc(O)cc2)cc(Br)c1OCc1ccccc1` it is inactive: -2.9%. The figure for `O=C(NCCSc1c[nH]c2ccccc12)c1ccc(Cl)cc1` is inactive: -20.7%; for `C=CCn1c2ccccc2c2nnc(SCC(=O)NC(C(=O)OC)C(C)C)nc21` (stereo not drawn) it is inactive: 3.85%. The figure for `O=C(CSc1nc2ccccc2o1)N/N=C/c1ccc(C(=O)O)cc1` is inactive: -6.83%; for `Cc1ccccc1C(=O)Oc1c(Sc2ccccc2)c(C)nn1C(C)(C)C` it is inactive: -15.2%; for `Nc1ccc(S(=O)(=O)Nc2ncccn2)cc1` it is inactive: -5.69%. As to `CCCCN(C(=O)Cc1ccc(S(=O)(=O)N2CCOCC2)s1)c1c(N)n(CCCC)c(=O)[nH]c1=O`, the activity change, negative = inhibition was inactive: 3.08%. The figure for `COC(=O)C/C(C)=N/Nc1ccc(S(=O)(=O)N2CCCC2)cc1[N+](=O)[O-]` is inactive: -13.7%; for `CN(C)c1ccc(/C=C(\C#N)c2nc(-c3ccc(Cl)c(Cl)c3)cs2)cc1` it is inactive: -2.06%; for `COc1cccc(NC(=O)C2CCN(c3nn4cc(-c5ccc(F)cc5)nc4s3)CC2)c1` it is inactive: -10.8%.

Consider `CC(OC(=O)C1CCN(S(=O)(=O)c2ccccc2C(F)(F)F)CC1)C(=O)N(C)Cc1ccccc1` (stereo not drawn), for which the activity change, negative = inhibition was inactive: 1.27%. In the case of `Cc1cccc(-n2c(CNC(=O)c3ccc(S(=O)(=O)N4CCCC4)cc3)n[nH]c2=S)c1` it was inactive: 0.804%.

As to `CCc1cc(C(=O)OC)c(NC(=O)CN2CCN(C(=O)C3CCCO3)CC2)s1` (stereo not drawn), the activity change, negative = inhibition is inactive: -6.31%. In the case of `Cc1cc(C(=O)COc2ccccc2C(N)=O)c(C)n1C` it was inactive: 1.6%; in that of `Cc1cc(/C=C(\C#N)C(=O)Nc2ccccc2)c(C)n1-c1ccc(C(=O)O)cc1`, inactive: -0.126%; in that of `COc1ccc(C)cc1NS(=O)(=O)c1cccc2nonc12`, inactive: 1.7%. For `COCCNC(=O)Cn1c(=O)n(CCCC(=O)NCc2ccc3c(c2)OCO3)c(=O)c2sccc21`, the activity change, negative = inhibition was inactive: -16.3%.

For the compound `CC(=O)c1cccc(S(=O)(=O)N2CCC(c3nc4ccccc4[nH]3)CC2)c1`, the activity change, negative = inhibition was inactive: 2.17%. Regarding `CCOC(=O)COc1ccc(/C=C2/C(=O)NN(c3ccc(F)cc3)C2=O)cc1OC`, the activity change, negative = inhibition is inactive: 4.26%. The figure for `COC(=O)c1ccc(NC(=S)N2CCN(C(=O)c3ccco3)CC2)cc1` is inactive: -6.35%; for `CCn1cc(S(=O)(=O)Nc2ccc(Cl)cc2F)cn1` it is inactive: -16.6%. Turning to `CCOC(=O)c1ccccc1NC(=O)COC(=O)C(Cc1c[nH]c2ccccc12)NC(C)=O` (stereo not drawn), the activity change, negative = inhibition was inactive: -11%. The figure for `Nc1nc(N2CCN(Cc3ccccc3)CC2)n[nH]1` is inactive: -12.8%; for `CCCn1c(=N)n(CC(=O)c2ccc([N+](=O)[O-])cc2)c2ccccc21` it is inactive: -7.8%. Consider `CSc1nc(-c2ccc(Cl)cc2)nn1C(=O)c1ccccc1`, for which the activity change, negative = inhibition is inactive: 0%. The figure for `CCN(CC)c1cccc(OC2=NS(=O)(=O)c3ccccc32)c1` is inactive: 6.44%. In the case of `COc1ccc(NC(=O)CSc2cccc3cccnc23)c(OC)c1` it was inactive: 0.653%; in that of `COc1cc2nc(N3CCN(C(=O)[C@@H]4CCCO4)CC3)nc(N)c2cc1OC`, inactive: -17.2%; in that of `COc1ccc(N/C=C(\C(C)=O)c2ccc(OC)c(OC)c2)cc1OC`, inactive: 1.84%. In the case of `COc1ccc(C(=O)N2CCCC(CCC(=O)NCc3ccccc3F)C2)c(OC)n1` (stereo not drawn) it was inactive: 0.16%; in that of `Cc1ccc(C(=O)N2CCCCC2C(=O)O)cc1S(=O)(=O)N1CCCCC1` (stereo not drawn), inactive: -2.45%; in that of `NC(=O)c1ccccc1NCC(=O)c1ccc(F)cc1`, inactive: 3.24%.

As to `COC(=O)/C(=C/Nc1ccc(O)cc1)[N+](=O)[O-]`, the activity change, negative = inhibition was inactive: 13.2%.

Turning to `Cc1ccc(N(CCCCN2C(=O)c3ccccc3C2=O)C(=O)c2ccc(Cl)s2)cc1`, the activity change, negative = inhibition was inactive: 4.74%.

In the case of `Cc1ccccc1OCC(=O)OCC(=O)NCCc1ccccc1`, the activity change, negative = inhibition is inactive: -4.25%. The figure for `CCN1CCN(C(=O)C(=O)c2cn(CC(=O)N3CCCCCC3)c3ccccc23)CC1` is inactive: 12.4%. In the case of `CCCc1nc2oc3c(OC)ncnc3c2c2c1COC(C)(C)C2` it was inactive: -20.4%.

Consider `O=C(NCC1CCN(S(=O)(=O)c2ccccc2)CC1)Nc1ccc(F)cc1`, for which the activity change, negative = inhibition is inactive: 1.59%. The figure for `CC1(C)C[C@@H]1C(=O)N/C(=C\CCCCSC[C@H](N)C(=O)O)C(=O)O` is inactive: 3.22%. In the case of `Nc1ccc(C(=O)O)cc1` it was inactive: 5.57%; in that of `COc1ccc(N=c2scc(C)n2CCCN2CCCC2=O)cc1`, inactive: -8.6%; in that of `O=C(CN1C=NS(=O)(=O)c2ccccc21)Nc1ccc(Br)cc1`, inactive: -7.5%.

`Nc1cc(C(=O)OCC(=O)NCCCc2ccccc2)ccc1Cl`: the activity change, negative = inhibition was inactive: -6.58%. The figure for `CN(C)S(=O)(=O)c1ccc(C(=O)N(c2ccccn2)c2ccccn2)cc1` is inactive: 1.38%; for `CCN(CC(=O)Nc1ccccc1C(F)(F)F)C(=O)c1ccc(N2C(=O)CCC2=O)cc1` it is inactive: 4.04%; for `Cn1cc2c(=O)n(/N=C/c3ccccc3)cnc2n1` it is inactive: 4.94%.
